No constants are given. Whether binding was seen depends on the method and setting. In cells and extracts the contact can be indirect. Some binding calls cover weakened binding; strength is not graded here.
What was measured:
[1] = target: Flag-TIM^Ct PARP1-binding mutant (MT: E1049Q/E1056Q/T1078D) (human) (UniProt Q9UNS1); assay: co-IP; anti-Flag co-IP (anti-FLAG M2 affinity gel) from transfected HEK293T lysates, NETN150 buffer, 4 h at 4 °C
Flag-TIM^Ct WT (human) = Flag-TIM^Ct WT (human) (UniProt Q9UNS1); assay: as above

Amino acid sequences for entries named in this document (tags omitted). A change or cut given only in a name is not applied to a line headed by its entry. Chains listed by the source or under a name are the forms on record and can include a tag or linker. Residues count along the entry.
Flag-TIM^Ct WT (Q9UNS1, residues 882-1208): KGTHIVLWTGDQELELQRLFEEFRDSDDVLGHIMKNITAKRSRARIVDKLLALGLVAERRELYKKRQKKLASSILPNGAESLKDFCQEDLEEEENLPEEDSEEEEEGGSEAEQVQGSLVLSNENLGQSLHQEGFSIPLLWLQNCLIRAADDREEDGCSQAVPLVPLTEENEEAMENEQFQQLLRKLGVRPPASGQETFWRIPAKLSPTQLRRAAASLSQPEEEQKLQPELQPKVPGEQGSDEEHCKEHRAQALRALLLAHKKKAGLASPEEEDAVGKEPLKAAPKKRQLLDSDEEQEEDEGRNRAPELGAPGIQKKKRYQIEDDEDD
Flag-TIM^Ct PARP1-binding mutant (MT: E1049Q/E1056Q/T1078D) (Q9UNS1, form named): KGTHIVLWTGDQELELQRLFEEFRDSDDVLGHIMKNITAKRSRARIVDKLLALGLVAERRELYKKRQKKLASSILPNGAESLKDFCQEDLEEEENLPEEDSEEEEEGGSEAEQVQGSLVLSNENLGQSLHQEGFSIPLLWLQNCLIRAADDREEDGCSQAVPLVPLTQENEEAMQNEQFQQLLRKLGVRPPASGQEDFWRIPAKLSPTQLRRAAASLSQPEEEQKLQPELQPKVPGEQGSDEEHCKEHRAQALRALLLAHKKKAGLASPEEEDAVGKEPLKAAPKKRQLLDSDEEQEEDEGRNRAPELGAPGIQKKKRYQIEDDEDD
UniProt P09874: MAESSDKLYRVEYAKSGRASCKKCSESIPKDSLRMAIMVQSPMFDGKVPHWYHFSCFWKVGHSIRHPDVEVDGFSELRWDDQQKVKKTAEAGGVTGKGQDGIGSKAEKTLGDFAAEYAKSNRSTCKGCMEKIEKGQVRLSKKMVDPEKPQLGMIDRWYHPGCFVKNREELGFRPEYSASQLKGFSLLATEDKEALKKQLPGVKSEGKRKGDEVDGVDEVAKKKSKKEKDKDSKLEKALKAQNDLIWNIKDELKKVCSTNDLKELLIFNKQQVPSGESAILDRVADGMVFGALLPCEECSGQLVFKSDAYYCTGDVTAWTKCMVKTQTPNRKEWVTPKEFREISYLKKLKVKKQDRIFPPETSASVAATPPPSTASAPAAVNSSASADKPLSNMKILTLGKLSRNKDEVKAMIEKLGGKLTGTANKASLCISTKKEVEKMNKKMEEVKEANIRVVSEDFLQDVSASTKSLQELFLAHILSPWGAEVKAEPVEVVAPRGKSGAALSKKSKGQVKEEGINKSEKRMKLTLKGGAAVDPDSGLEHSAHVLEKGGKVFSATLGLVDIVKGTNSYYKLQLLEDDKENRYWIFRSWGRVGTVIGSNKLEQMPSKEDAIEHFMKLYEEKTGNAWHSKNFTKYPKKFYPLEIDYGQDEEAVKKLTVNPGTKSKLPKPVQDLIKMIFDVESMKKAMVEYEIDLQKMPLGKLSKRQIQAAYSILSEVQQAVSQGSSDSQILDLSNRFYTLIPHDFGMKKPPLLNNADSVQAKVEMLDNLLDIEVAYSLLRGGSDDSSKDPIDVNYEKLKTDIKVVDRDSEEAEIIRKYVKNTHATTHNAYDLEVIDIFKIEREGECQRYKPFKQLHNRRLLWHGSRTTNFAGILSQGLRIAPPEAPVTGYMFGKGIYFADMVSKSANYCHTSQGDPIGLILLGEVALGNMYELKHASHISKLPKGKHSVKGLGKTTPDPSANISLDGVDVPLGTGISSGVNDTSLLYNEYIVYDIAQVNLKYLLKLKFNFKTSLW

## PARP1, endogenous (from UniProt P09874 1-1014)
[1]
  binding: no binding
Flag-TIM^Ct WT (human)
  binding: binds

From publication PMC7603486
